Laboratory results reported in PubChem BioAssay AID504444 (National Center for Advancing Translational Sciences (NCATS), 2011).
Among all 360,000 compounds or so, about 7,500 (2.1%) were called active. The inconclusive results got no clear call from the source; some entries with a clear call stand among them for comparison. Calls follow the shape of the dose curve; as a rule, active = well fitted inhibition curve with a large enough effect; inconclusive = small, poorly fitted or top-dose-only effect, or effect the other way; inactive = flat fitted curve, though single readings scatter. Potencies beside an inconclusive call are fits to weak or partial responses and may not hold up.

Test: Nrf2 qHTS screen for inhibitors; also: nearly all actives have a fitted effect of over 60% in size
Conditions: A549 ARE-Fluc reporter, luciferase luminescence, 18-24 h; series mostly up to 46 µM
Summary of the method: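 A549 ARE_Fluc cells, 5000/well, 5% FBS OPTI-MEM; compounds in dose-response, 18-24 h at 37 °C/5% CO2; CellTiter-Fluor viability read (Ex 405/Em 525), then BugLite luciferase luminescence = Nrf2 activity.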
Potency is read from the fitted curve at half-maximal effect.

| SMILES | Potency |
| --- | --- |
| O=[N+]([O-])c1ccc(/C=N/Nc2nc(N3CCCCC3)nc(N3CCCCC3)n2)cc1 | inactive |
| COc1ccc(C(=O)Nc2ccc(C(=O)c3ccccc3)cc2)cc1 | active: 9.2 µM |
| Cc1cc(C)c2c(N)c(C(=O)Nc3ccc(F)cc3)sc2n1 | inconclusive: 16.4 µM [activator, partial curve] |
| Cc1cc2c(s1)c1cnn(Cc3ccccc3C)c(=O)c1n2C | inactive |
| COc1ccc(C(=O)NN(C)c2nc(C(F)(F)F)nc3ccccc23)cc1 | inconclusive: 29.1 µM [activator, partial curve, poor fit] |
| COc1ccc(NC(=O)Nc2nnc(-c3cccs3)s2)cc1 | inconclusive: 13 µM [activator, partial curve] |
| COc1ccccc1NC(=O)C1=C(C)Nc2nc(-c3cccs3)nn2C1c1cccc(O)c1 (stereo not given) | inconclusive: 23.1 µM [falling, single point] |
| OC(CCCCN1CCCCC1)c1ccccc1 (stereo not given) | inconclusive: 6.51 µM [falling, single point] |
| Cc1ccc(C)c(NS(=O)(=O)c2cc3c(cc2C)n(C)c(=O)c(=O)n3C)c1 | inactive |
| COc1ccccc1/C=C/C(=O)c1c2c(c(C)[nH]c1=O)CCCC2 | active: 16.4 µM |
| NC(=O)CSc1nnc(NC(=O)c2ccc3ccccc3c2)s1 | inconclusive: 2.91 µM [activator, full curve, poor fit] |
| Cc1cc(C)cc(OCC(=O)NNC(=O)C2CCCO2)c1 (stereo not given) | inconclusive: 5.17 µM [activator, partial curve, poor fit] |
| CN(C)c1cccc(C(=O)OCC(=O)Nc2ccccc2Sc2ccccc2)c1 | inactive |
| N/C(=N\OC(=O)CCc1ccccc1)c1ccc(Cl)cc1 | inconclusive: 25.9 µM [activator, single point] |
| O=[N+]([O-])c1cccn2cc(-c3ccc(Br)cc3)nc12 | inconclusive: 18.4 µM [activator, single point] |
| Cc1cc(C)n2nc(C(=O)N/N=C/c3cccs3)nc2n1 | inconclusive: 23.1 µM [activator, single point] |
| COc1ccc(-c2nc3c(c(SCC(=O)N4CCCCC4)n2)Cc2cc(C)ccc2O3)cc1 | inactive |
| CC1CCN(S(=O)(=O)c2ccc3c(c2)n(C)c(=O)n3C)CC1 | inconclusive: 9.2 µM [falling, partial curve, poor fit] |
| O=C(N/N=C/c1ccc([N+](=O)[O-])o1)c1sc2ccccc2c1Cl | inconclusive: 2.06 µM [activator, partial curve, poor fit] |
| Oc1ccc(/C=C/c2c(F)cccc2F)c2cccnc12 | inactive |
| Cc1ccc(S(=O)(=O)NCC(c2ccco2)N2CCOCC2)cc1 (stereo not given) | inconclusive: 29.1 µM [falling, partial curve, poor fit] |
| O=S(=O)(c1cccc(Cl)c1)c1nnn2c1nc(NCc1ccc3c(c1)OCO3)c1sccc12 | inconclusive: 23.1 µM [falling, single point] |

Reformatted with bars between the fields: entries from further up
SMILES | Potency
O=[N+]([O-])c1cccn2cc(-c3ccc(Br)cc3)nc12 | inconclusive: 18.4 µM [activator, single point]
Cc1cc(C)n2nc(C(=O)N/N=C/c3cccs3)nc2n1 | inconclusive: 23.1 µM [activator, single point]
COc1ccc(-c2nc3c(c(SCC(=O)N4CCCCC4)n2)Cc2cc(C)ccc2O3)cc1 | inactive

More records

| SMILES | Potency |
| --- | --- |
| CCN(CC)S(=O)(=O)c1cc([N+](=O)[O-])ccc1NNC(=O)Nc1ccc(F)cc1 | inconclusive: 18.4 µM [falling, partial curve, poor fit] |
| Cc1noc(C)c1COc1ccc(C(=O)OCC(=O)N2CC(=O)Nc3ccccc32)cc1 | inconclusive: 29.1 µM [falling, single point] |
| O=[N+]([O-])c1ccccc1-c1ccc(C(=S)N2CCCC2)o1 | inconclusive: 23.1 µM [activator, partial curve] |
| Cc1ccccc1C(=O)N1CCC(C(=O)Oc2ccc(C#N)cc2)CC1 | inconclusive: 0.082 µM [falling, full curve, poor fit] |
| CCOc1ccc(CNC(=O)c2ccc(Sc3ccc(C)cc3)c(NC(C)=O)c2)cc1 | inconclusive: 23.1 µM [falling, single point] |
| COc1cccc(NC(=O)c2cccc3c(=O)c4c([nH]c23)CCCC4)c1 | inactive |
| CSc1nc2nc3c(cc2c(=O)n1-c1ccccc1C)CCCC3 | active: 5.8 µM |
| CCOC(=O)C1CCCN(C(=O)CC(C)c2ccccc2)C1 (stereo not given) | inconclusive: 8.2 µM [activator, partial curve] |
| CCNc1nc(Oc2ccc(Cl)cc2Cl)cc(C(F)(F)F)n1 | inactive |
| Cc1ccc2c(c1)N(CC(=O)NC1CCCCCC1)C(=O)c1cccnc1O2 | inconclusive: 11.6 µM [falling, partial curve] |
| Cc1ccc(SCCNC(=O)c2ccc(C)c(S(=O)(=O)Nc3ccccc3C)c2)cc1 | active: 13 µM |
| Cc1cc(Cl)ccc1OCC(=O)N[C@@H](Cc1ccccc1)c1nc2ccccc2[nH]1 | inconclusive: 29.1 µM [falling, single point] |
| C=CCN=c1scc(C)n1/N=C/c1ccc(O)c(O)c1 | inconclusive: 18.4 µM [activator, single point] |
| CCS(=O)(=O)N1CCC(C(=O)N2CCc3ccccc3C2)CC1 | inactive |
| S=C(Nc1ccc2nsnc2c1)N1CCCC1 | inconclusive: 2.91 µM [activator, full curve] |
| COc1ccc(NS(=O)(=O)c2ccc(Cl)c(N)c2)cc1Br | inconclusive: 18.4 µM [activator, partial curve, poor fit] |
| O=C(Cc1ccc(-n2cccc2)cc1)NCc1ccccc1Cl | inconclusive: 6.51 µM [activator, partial curve, poor fit] |
| Cc1ccc(C(=O)Nc2ccc3c(c2)OCO3)cc1S(=O)(=O)N1CCCC1 | inconclusive: 0.517 µM [activator, full curve] |
| Cc1cccc(C(=O)N[C@H](C(=O)Nc2cc(S(=O)(=O)N3CCCCC3)ccc2C)C(C)C)c1 | inconclusive: 7.31 µM [falling, partial curve, poor fit] |
| Cn1c2ccccc2c(=O)c2ccc(C#CC3(O)CCCCC3)cc21 | inconclusive: 2.91 µM [activator, partial curve, poor fit] |
| Cc1cc(=O)[nH]c(SCC(=O)NC(C)C2CC3CCC2C3)c1C#N (stereo not given) | inconclusive: 7.31 µM [falling, partial curve, poor fit] |
| CC(=O)Nc1ccc(/C=C/c2noc(-c3ccccc3O)n2)cc1 | inconclusive: 18.4 µM [activator, single point] |

| SMILES | Potency |
| --- | --- |
| O=C(NC1CC1)c1c(O)c2ccccc2[nH]c1=O | inconclusive: 25.9 µM [falling, single point] |
| CC(C)(C)C#CCn1c(/C=[N+](\[O-])C2CCCCC2)nc2ccccc21 | inconclusive: 16.4 µM [falling, partial curve, poor fit] |
| O=C(Nc1ccccc1F)C1CCCN(S(=O)(=O)c2ccccc2)C1 (stereo not given) | inconclusive: 6.51 µM [falling, partial curve] |
| CC(=O)c1ccc(N2CCN(S(=O)(=O)c3cc4[nH]c(=O)c(=O)[nH]c4cc3C)CC2)cc1 | inconclusive: 29.1 µM [activator, single point] |
| COc1ccccc1-c1cc(-c2ccccc2)nc(SC(C(N)=O)c2ccccc2)c1C#N (stereo not given) | inconclusive: 18.4 µM [falling, single point] |
| CCN1C(=C(C#N)C#N)C=Cc2cc(C)ccc21 | inactive |
| COc1cccc(Oc2ccc(C(F)(F)F)cc2NC(=O)C2=COCCO2)c1 | inconclusive: 25.9 µM [falling, single point] |
| CCc1ccc(C(=O)NNc2cc(Cl)cc(Cl)c2)cc1 | inconclusive: 13 µM [activator, partial curve, poor fit] |
| N#Cc1ccc(C23CC4(C2)[C@H](CN(Cc2cccnc2)[C@@H]4c2ccccc2)C3c2ccccc2)cc1 (stereo not given in full) | inconclusive: 18.4 µM [falling, single point] |
| Cc1ccc(C)c(N2CCN(C(=O)Cn3cnc4onc(-c5ccc(F)cc5)c4c3=O)CC2)c1 | inactive |
| COc1ccc(-c2noc(CCC(=O)N(C)c3cc(Cl)ccc3OC)n2)cc1 | inconclusive: 23.1 µM [falling, single point] |
| CC(C)CCOc1ccc(C(=O)NCC2OCCc3ccccc32)cc1 (stereo not given) | inconclusive: 14.6 µM [falling, partial curve, poor fit] |
| CC(=O)c1ccc(N2CCN(C(=O)CCS(=O)(=O)c3ccc(C)cc3)CC2)cc1 | inconclusive: 14.6 µM [activator, partial curve, poor fit] |
| O=C(Nc1ccc(N2CCN(C(=O)c3ccccc3)CC2)c(Cl)c1)c1ncn[nH]1 | inconclusive: 25.9 µM [falling, partial curve, poor fit] |
| CC(C)n1c(-c2ccc(C(C)(C)C)cc2)n[nH]c1=S | inconclusive: 18.4 µM [falling, single point] |
| CCOc1ccc(CCNC(=O)c2nn(C)c3c2CS(=O)(=O)c2ccccc2-3)cc1OCC | inconclusive: 4.61 µM [falling, partial curve, poor fit] |
| O=C(Nc1ccc(Oc2ccccc2)cc1)C1CCN(c2c3c(nc4ncnn24)CCC3)CC1 | inconclusive: 23.1 µM [falling, partial curve, poor fit] |
| CCOC(=O)C1CCCCN1C(=O)CCc1c(C)nc2cc(-c3ccccc3)nn2c1C (stereo not given) | inconclusive: 2.59 µM [falling, full curve] |
| CCOC(=O)N1CCN(C(=S)Nc2ccc3nc(N4CCN(CC)CC4)cc(C)c3c2)CC1 | inactive |
| Cc1ccc(NC(=O)CCCc2nc(-c3ccco3)no2)cc1Cl | inconclusive: 16.4 µM [activator, partial curve, poor fit] |
| C[C@H](NC(=O)c1nc[nH]c1C(=O)N[C@@H](Cc1ccccc1)C(=O)OC(C)(C)C)c1ccccc1 | inconclusive: 29.1 µM [falling, single point] |

Structures from the list above with a CF3 group (3):

| SMILES | Potency |
| --- | --- |
| COc1ccc(C(=O)NN(C)c2nc(C(F)(F)F)nc3ccccc23)cc1 | inconclusive: 29.1 µM [activator, partial curve, poor fit] |
| CCNc1nc(Oc2ccc(Cl)cc2Cl)cc(C(F)(F)F)n1 | inactive |
| COc1cccc(Oc2ccc(C(F)(F)F)cc2NC(=O)C2=COCCO2)c1 | inconclusive: 25.9 µM [falling, single point] |
